Assay results reported in patent US20150361165A1 (SYDDANSK UNIVERSITET, published 2015).
Results are given in words; binding and its absence hold for the method and conditions named. Some entries that bind do so weakly or less than the wild type.

T1: recombinant MFAP4 (rMFAP4), wild-type (human) (UniProt P55083)
T1 sequence (looked up): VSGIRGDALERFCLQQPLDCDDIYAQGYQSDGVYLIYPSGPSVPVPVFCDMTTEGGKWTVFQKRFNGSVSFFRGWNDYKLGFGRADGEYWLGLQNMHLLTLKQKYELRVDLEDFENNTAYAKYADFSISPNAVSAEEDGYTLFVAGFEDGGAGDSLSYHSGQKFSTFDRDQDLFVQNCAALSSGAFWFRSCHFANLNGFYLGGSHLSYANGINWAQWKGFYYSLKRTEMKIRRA


Key:
[1] = biological target: T1, recombinant MFAP4 (rMFAP4), wild-type (human); test: ELISA
[2] = biological target: T1, recombinant MFAP4 (rMFAP4), wild-type (human); test: ELISA, antibody as capture

Row | binding [1] | binding [2] | Binder
1 | binds |  | HG-HYB 7-14 (antibody, V domains shown, Monoclonal antibody raised in MFAP4-deficient C57BL/6N mice against rMFAP4; also called FITC-anti-MFAP4 (HG-HYB 7-14)) VH: EVKVVESGGGLVQPGGSLRLSCATSGFTFSDFYMEWVRQPPGKRLEWIAASRNKANDYTTEYSASVKGRFIVSRDTSQSILYLQLNALRAEDTAIYYCARNYYDSSYWYFDVWGAGTTVTVSS VL: DIVLTQSPSYLAASPGETITINCRASKSISKYLAWYQERPGKTNKLLIYSGSTLQSGIPSRFSGSGSGTDFTLTISSLEPEDFAMYYCQQHNEYPFTFGAGTKLELK
2 |  | binds | HG-HYB 7-5 (antibody, V domains shown) VH: EVQLQQSGPELVKPGASVKLSCKTSGYTFTSYDMNWVKQRPGQGLEWIGWIFPRDGSTKFNEKFKGKATLTVDTSSTTAYMELHSLTSEDSAVYFCARAEIFFDYGFDYWGQGTTLTVSS VL: DIVMTQSTALMAASPGEKVTITCSVSSSISSSNLHWYQQKSETSPKSWIYGTSNLASGVPGRFSGSGSGTSYSLTISSVEAEDAATYYCQQWSSYPLTFGGGTKLEIK
